In US20050214387A1, “Low-dose potassium supplementation for the prevention and treatment of hypertension” (priority 2002, published 2005):
For part of these data: No dose or concentration is given here for some results.

Tests used:
[1] = Low-dose potassium trial: body mass index; format: in vivo, human; conditions: within potassium group, n = 30, mean ± SEM
[2] = tested on: apparently healthy volunteers; test: Low-dose potassium trial: heart rate; format: in vivo, human; conditions: n = 30, mean ± SEM

SMILES: [Cl-].[K+] [Potassium, potassium chloride]
- BMI Week 6 − Week 0 mean difference [1]: 0.03 ± 0.07 kg/m^2
- Heart rate Week 3 [2]: 66.07 ± 1.54 beats/min
- Heart rate Week 6 [2]: 66.77 ± 1.35 beats/min
- Heart rate Week 3 − Week 0 mean difference ([2]; within potassium group): −0.50 ± 0.99 beats/min
- Heart rate Week 6 − Week 0 mean difference ([2]; within potassium group): 0.20 ± 0.85 beats/min
- Heart rate Week 6 − Week 3 mean difference ([2]; within potassium group): 0.70 ± 0.98 beats/min
